Values as published with doi:10.1371/journal.pone.0140310, rounded.

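The test systems are human melanoma cell lines, treated with two drugs together for 72 h and then stained and imaged. Each value is the count of nuclei relative to DMSO-treated wells, in %, so that 100 equals the control. Every drug was used at one fixed concentration, the higher of two screened. No replicate spread is given; individual values may be noisy.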 This is part of the screen, not chosen by result.

All values are for the listed drug together with L-779450 (1 µM): Oc1cc(-c2nc(-c3ccccc3)[nH]c2-c2ccncc2)ccc1Cl

Compounds and concentrations:
CHIR-265: Cn1c(Nc2ccc(C(F)(F)F)cc2)nc2cc(Oc3ccnc(-c4ncc(C(F)(F)F)[nH]4)c3)ccc21 at 0.4 µM
bortezomib: CC(C)C[C@H](NC(=O)[C@H](Cc1ccccc1)NC(=O)c1cnccn1)B(O)O at 0.005 µM
lenalidomide: Nc1cccc2c1CN(C1CCC(=O)NC1=O)C2=O (stereo not shown) at 5 µM
OSI-906: C[C@]1(O)C[C@@H](c2nc(-c3ccc4ccc(-c5ccccc5)nc4c3)c3c(N)nccn32)C1 at 2 µM
MK-2206: NC1(c2ccc(-c3nc4ccn5c(=O)[nH]nc5c4cc3-c3ccccc3)cc2)CCC1 at 2 µM
PLX4720: CCCS(=O)(=O)Nc1ccc(F)c(C(=O)c2c[nH]c3ncc(Cl)cc23)c1F at 0.4 µM
crizotinib: C[C@@H](Oc1cc(-c2cnn(C3CCNCC3)c2)cnc1N)c1c(Cl)ccc(F)c1Cl at 1 µM
cisplatin: N.N.[Cl][Pt][Cl] at 8 µM
everolimus: CO[C@H]1C[C@@H]2CC[C@@H](C)[C@@](O)(O2)C(=O)C(=O)N2CCCC[C@H]2C(=O)O[C@H]([C@H](C)C[C@@H]2CC[C@@H](OCCO)[C@H](OC)C2)CC(=O)[C@H](C)/C=C(\C)[C@@H](O)[C@@H](OC)C(=O)[C@H](C)C[C@H](C)/C=C/C=C/C=C/1C at 0.1 µM
bexarotene: C=C(c1ccc(C(=O)O)cc1)c1cc2c(cc1C)C(C)(C)CCC2(C)C at 10 µM
sunitinib: CCN(CC)CCNC(=O)c1c(C)[nH]c(/C=C2\C(=O)Nc3ccc(F)cc32)c1C at 2 µM
lestaurtinib: C[C@]12O[C@H](C[C@]1(O)CO)n1c3ccccc3c3c4c(c5c6ccccc6n2c5c31)CNC4=O at 0.02 µM
nilotinib: Cc1cn(-c2cc(NC(=O)c3ccc(C)c(Nc4nccc(-c5cccnc5)n4)c3)cc(C(F)(F)F)c2)cn1 at 1 µM
SU6656: CN(C)S(=O)(=O)c1ccc2c(c1)/C(=C/c1cc3c([nH]1)CCCC3)C(=O)N2 at 2 µM
YM155: COCC[n+]1c2c(n(Cc3cnccn3)c1C)C(=O)c1ccccc1C2=O at 0.002 µM
fludarabine: Nc1nc(F)nc2c1ncn2[C@@H]1O[C@H](CO)[C@@H](O)[C@@H]1O at 1 µM
veliparib: C[C@]1(c2nc3c(C(N)=O)cccc3[nH]2)CCCN1 at 7 µM
GW9662: O=C(Nc1ccccc1)c1cc([N+](=O)[O-])ccc1Cl at 10 µM
OSU-03012: NCC(=O)Nc1ccc(-n2nc(C(F)(F)F)cc2-c2ccc3c(ccc4ccccc43)c2)cc1 at 5 µM
AZD7762: NC(=O)Nc1cc(-c2cccc(F)c2)sc1C(=O)N[C@H]1CCCNC1 at 0.1 µM
JZL184: O=C(Oc1ccc([N+](=O)[O-])cc1)N1CCC(C(O)(c2ccc3c(c2)OCO3)c2ccc3c(c2)OCO3)CC1 at 5 µM
GW0742: Cc1cc(SCc2sc(-c3ccc(C(F)(F)F)c(F)c3)nc2C)ccc1OCC(=O)O at 10 µM
darinaparsin: C[As](C)SC[C@H](NC(=O)CC[C@H](N)C(=O)O)C(=O)NCC(=O)O at 2 µM
CP-690550: C[C@@H]1CCN(C(=O)CC#N)C[C@@H]1N(C)c1ncnc2[nH]ccc12 at 5 µM
pioglitazone: CCc1ccc(CCOc2ccc(CC3SC(=O)NC3=O)cc2)nc1 (stereo not shown) at 10 µM
lapatinib: CS(=O)(=O)CCNCc1ccc(-c2ccc3ncnc(Nc4ccc(OCc5cccc(F)c5)c(Cl)c4)c3c2)o1 at 4 µM
dovitinib: CN1CCN(c2ccc3nc(-c4c(N)c5c(F)cccc5[nH]c4=O)[nH]c3c2)CC1 at 0.5 µM
IMD-0354: O=C(Nc1cc(C(F)(F)F)cc(C(F)(F)F)c1)c1cc(Cl)ccc1O at 0.08 µM
sorafenib: CNC(=O)c1cc(Oc2ccc(NC(=O)Nc3ccc(Cl)c(C(F)(F)F)c3)cc2)ccn1 at 2 µM
PF-562271: CN(c1ncccc1CNc1nc(Nc2ccc3c(c2)CC(=O)N3)ncc1C(F)(F)F)S(C)(=O)=O at 0.4 µM
stibogluconate: O=C(O)[C@@H]1[O][Sb](=[O])([O][Sb]2(=[O])[O][C@H]([C@H](O)CO)[C@H](O)[C@H](C(=O)O)[O]2)[O][C@H]([C@H](O)CO)[C@@H]1O (stereo partly shown) at 10 µM
gemcitabine: Nc1ccn([C@@H]2O[C@H](CO)[C@@H](O)C2(F)F)c(=O)n1 at 0.002 µM
decitabine: Nc1ncn([C@H]2C[C@H](O)[C@@H](CO)O2)c(=O)n1 at 0.5 µM
vorinostat: O=C(CCCCCCC(=O)Nc1ccccc1)NO at 0.4 µM
tanespimycin: C=CCNC1=C2C[C@@H](C)C[C@H](OC)[C@H](O)[C@@H](C)/C=C(\C)[C@H](OC(N)=O)[C@@H](OC)/C=C\C=C(/C)C(=O)NC(=CC1=O)C2=O at 0.01 µM
BMS-536924: Cc1cc(N2CCOCC2)cc2[nH]c(-c3c(NC[C@@H](O)c4cccc(Cl)c4)cc[nH]c3=O)nc12 at 1 µM

Partner | COLO 792 | COLO 800 | WM3619 | C32 | WM451Lu | COLO 829
JZL184 | 103 | 103 | 81.9 | 86.0 | 54.4 | 73.4
OSI-906 | 97.7 | 66.8 | 78.0 | 80.0 | 66.2 | 62.8
dovitinib | 74.8 | 43.8 | 57.2 | 56.9 | 53.6 | 60.9
IMD-0354 | 101 | 74.3 | 102 | 91.2 | 78.4 | 78.3
nilotinib | 118 | 83.4 | 86.9 | 80.4 | 57.9 | 68.1
decitabine | 76.3 | 163 | 65.6 | 87.9 | 56.4 | 76.6
lestaurtinib | 57.5 | 90.1 | 75.7 | 68.8 | 43.5 | 57.1
stibogluconate | 80.0 | 70.0 | 80.4 | 78.5 | 47.1 | 51.8
tanespimycin | 96.8 | 95.6 | 59.7 | 4.7 | 59.9 | 56.9
lenalidomide | 116 | 80.7 | 49.2 | 75.8 | 65.7 | 102
vorinostat | 91.8 | 64.1 | 55.8 | 86.7 | 68.1 | 75.2
crizotinib | 86.1 | 44.0 | 68.0 | 64.0 | 40.4 | 75.7
everolimus | 54.2 | 78.4 | 66.7 | 59.7 | 60.2 | 73.5
gemcitabine | 76.4 | 47.1 | 37.9 | 83.0 | 59.2 | 68.2
sunitinib | 55.8 | 23.6 | 55.6 | 22.7 | 39.3 | 57.9
darinaparsin | 91.2 | 65.5 | 63.9 | 70.1 | 53.3 | 70.5
MK-2206 | 68.7 | 78.3 | 84.3 | 46.9 | 56.5 | 67.1
veliparib | 115 | 57.5 | 85.4 | 94.8 | 58.4 | 87.5
pioglitazone | 90.1 | 72.8 | 71.1 | 66.8 | 57.8 | 57.9
OSU-03012 | 77.6 | 68.5 | 2.8 | 66.8 | 64.7 | 80.0
GW9662 | 90.0 | 60.1 | 52.0 | 76.0 | 52.2 | 68.0
PF-562271 | 79.9 | 89.9 | 77.0 | 67.6 | 43.6 | 52.2
lapatinib | 97.4 | 82.8 | 58.3 | 74.5 | 59.3 | 55.9
CP-690550 | 97.9 | 65.5 | 77.2 | 70.5 | 42.4 | 70.5
sorafenib | 148 | 89.8 | 79.2 | 83.4 | 49.6 | 83.9
bexarotene | 97.3 | 89.8 | 88.7 | 94.2 | 74.4 | 97.3
bortezomib | 41.5 | 82.7 | 6.2 | 14.0 | 18.8 | 11.9
GW0742 | 105 | 88.1 | 76.1 | 84.8 | 52.0 | 74.5
CHIR-265 | 31.5 | 95.0 | 14.2 | 19.6 | 42.1 | 43.1
cisplatin | 118 | 63.2 | 76.1 | 80.0 | 73.7 | 68.8
AZD7762 | 50.8 | 70.2 | 23.2 | 64.2 | 80.4 | 79.7
SU6656 | 77.7 | 71.7 | 61.3 | 63.6 | 53.3 | 69.3
YM155 | 62.5 | 42.0 | 61.1 | 80.7 | 37.2 | 82.8
BMS-536924 | 72.2 | 24.8 | 65.4 | 37.7 | 45.5 | 71.8
fludarabine | 80.4 | 86.9 | 74.8 | 80.2 | 55.0 | 59.2
PLX4720 | 94.7 | 101 | 78.6 | 53.2 | 48.7 | 53.8

The first 3 entries again:

Partner	COLO 792	COLO 800	WM3619	C32	WM451Lu	COLO 829
JZL184	103	103	81.9	86.0	54.4	73.4
OSI-906	97.7	66.8	78.0	80.0	66.2	62.8
dovitinib	74.8	43.8	57.2	56.9	53.6	60.9